Patent US11939241B2, “Stable percarboxylic acid compositions and uses thereof” (Ecolab USA Inc., priority 2012, dated 2024)

Test: Gelling test: kinetic viscosity of a guar based gel fluid
Details: 2.5 hr

Compound: OO [Composition H2O2, hydrogen peroxide]
- impact on gel property (7 ppm H2O2 with 80 ppm POAA, compared with glutaraldehyde control): no impact on the gel property
- impact on gel property (14 ppm H2O2 with 80 ppm POAA): Gel failure
